# Test results taken from publication doi:10.1101/2022.07.31.501833.
# Target: T1, ProtA-tagged CtNdc1 (Chaetomium thermophilum Ndc1), expressed in S. cerevisiae (Chaetomium thermophilum) (UniProt G0S235)
# T1 sequence: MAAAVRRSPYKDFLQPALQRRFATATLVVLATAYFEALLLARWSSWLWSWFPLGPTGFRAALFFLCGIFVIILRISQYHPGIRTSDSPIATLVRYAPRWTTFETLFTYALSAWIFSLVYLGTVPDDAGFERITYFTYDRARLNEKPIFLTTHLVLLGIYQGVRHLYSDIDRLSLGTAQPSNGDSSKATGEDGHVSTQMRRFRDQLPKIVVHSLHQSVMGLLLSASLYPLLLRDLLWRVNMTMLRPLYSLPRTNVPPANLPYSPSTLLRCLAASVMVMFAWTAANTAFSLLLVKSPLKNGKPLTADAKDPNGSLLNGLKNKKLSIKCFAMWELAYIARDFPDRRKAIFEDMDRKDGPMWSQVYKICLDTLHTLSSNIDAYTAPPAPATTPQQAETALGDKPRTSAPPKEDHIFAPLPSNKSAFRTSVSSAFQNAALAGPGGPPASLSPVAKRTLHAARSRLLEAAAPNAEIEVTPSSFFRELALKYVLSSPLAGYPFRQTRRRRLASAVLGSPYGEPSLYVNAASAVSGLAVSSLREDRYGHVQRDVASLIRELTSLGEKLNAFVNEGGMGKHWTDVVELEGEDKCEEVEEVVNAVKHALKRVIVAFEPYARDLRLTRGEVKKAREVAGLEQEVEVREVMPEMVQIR
# Assay: pull-down
row,Substance,binding
1,C-terminal α-helical domain of CtNup120 (Chaetomium thermophilum) (domain or fragment),binds
2,C-terminal α-helical domain of CtNup133 (Chaetomium thermophilum) (domain or fragment),binds
3,β-propeller domain of CtNup120 (Chaetomium thermophilum) (domain or fragment),no binding
4,β-propeller domain of CtNup133 (Chaetomium thermophilum) (domain or fragment),no binding

# These are yes or no findings as the source states them, for the method shown. Binding calls can cover weak binding; strength is not graded here. Tags and fused reporters may be left off the sequences shown.
